From patent publication US5728551

Biological target: T1, Ty1 integrase (in Ty1 virus-like particles) (Saccharomyces cerevisiae) (UniProt Q07163)
T1 sequence (looked up, limits assumed): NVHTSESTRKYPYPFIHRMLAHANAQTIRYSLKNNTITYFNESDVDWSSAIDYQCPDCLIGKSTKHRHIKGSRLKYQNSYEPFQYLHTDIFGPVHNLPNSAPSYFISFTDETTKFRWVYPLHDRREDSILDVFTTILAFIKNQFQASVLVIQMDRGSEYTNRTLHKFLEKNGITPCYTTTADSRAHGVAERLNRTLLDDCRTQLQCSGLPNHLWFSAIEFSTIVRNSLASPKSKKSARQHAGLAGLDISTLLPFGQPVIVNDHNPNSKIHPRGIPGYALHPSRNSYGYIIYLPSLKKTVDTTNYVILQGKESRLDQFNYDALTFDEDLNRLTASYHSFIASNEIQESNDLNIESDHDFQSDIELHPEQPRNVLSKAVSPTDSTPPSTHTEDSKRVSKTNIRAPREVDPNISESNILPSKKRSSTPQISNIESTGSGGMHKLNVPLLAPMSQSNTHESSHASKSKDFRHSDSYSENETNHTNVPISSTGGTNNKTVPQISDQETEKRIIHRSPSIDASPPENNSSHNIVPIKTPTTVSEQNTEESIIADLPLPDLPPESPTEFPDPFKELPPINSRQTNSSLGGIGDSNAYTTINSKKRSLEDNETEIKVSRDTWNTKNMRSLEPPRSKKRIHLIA
Test: activity assay
Conditions: in vitro integration into plasmid p76-2; 15 mM MgCl2, 10 mM Tris pH 7.5, 10 mM KCl, 1 mM DTT, 5% PEG 8000, 30 C then 37 C; 9.1e-7 with 25 mM EDTA

## TGTTCACCGCGGTGGCGGCCGCTCTAGAACTAGTGGATCCTGCAAGCAGGATAGACGGCATGCACGATTTGTAATAACAGAGTGTCTTGTATTTTTAAAGAAAGTCTATTTAATACAAGTGATTATATTAATTAACGGTAAGCATCAGCGGGTGACAAAACGAGCATGCTTACTAATAAAATGTTAACCTCTGAGGAAGAATTGTGAAACTATCACTAATGGTAGCTATATCGAAGAATGGAGTTATCGGGAATGGCCCTGATATTCCATGGAGTGCCAAAGGTGAACAGCTCCTGTTTAAAGCTATTACCTATAACCAATGGCTGTTGGTTGGACGCAAGACTTTTGAATCAATGGGAGCATTACCCAACCGAAAGTATGCGGTCGTAACACGTTCAAGTTTTACATCTGACAATGAGAACGTATTGATCTTTCCATCAATTAAAGATGCTTTAACCAACCTAAAGAAAATAACGGATCATGTCATTGTTTCAGGTGGTGGGGAGATATACAAAAGCCTGATCGATCAAGTAGATACACTACATATATCTACAATAGACATCGAGCCGGAAGGTGATGTTTACTTTCCTGAAATCCCCAGCAATTTTAGGCCAGTTTTTACCCAAGACTTCGCCTCTAACATAAATTATAGTTACCAAATCTGGCAAAAGGGTTAACAAGTGGCAGCAACGGATTCGCAAACCTGTCACGCCTTTTGTGCCAAAAGCCGCGCCAGGTTTGCGATCCGCTGTGCCAGGCGTTAGGCGTCATATGAAGATTTCGGTGATCCCTGAGCAGGTGGCGGAAACATTGGATGCTGAGAATTCGATATCAAGCTTATCGATACCGTCGACCTCGAGAACA (double strand) [AT-2 artificial transposon (PART)]
  activity on this sequence (insertions per target transformant): 4.2e-05

Construct, isoform or probe ends are uncertain for at least one entry. Tags and fusion partners may be left off the protein sequences shown.
